According to publication PMC8301015:
These are yes or no findings as the source states them, for the method shown. In cells and extracts the contact can be indirect. A yes stands for co-enrichment or nearness to the bait. Other partners may have been found. Where a sequence is shown, tags or fusion partners need not be part of it.

T1: AbxC (atypical BrxC; DR_1832), C-terminal His x 6 tag (Deinococcus radiodurans) (UniProt Q9RTD3)
T1 sequence: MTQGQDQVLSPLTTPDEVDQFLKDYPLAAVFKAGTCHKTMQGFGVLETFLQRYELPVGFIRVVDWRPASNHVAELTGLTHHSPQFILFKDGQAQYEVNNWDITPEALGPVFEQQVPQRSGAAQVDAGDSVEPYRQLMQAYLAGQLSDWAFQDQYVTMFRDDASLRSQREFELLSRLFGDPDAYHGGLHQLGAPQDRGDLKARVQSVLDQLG

B1: ketol-acid reductoisomerase (DR_1519), endogenous (enzyme, UniProt Q9RU74 1-336)
chain: MSAKMYYDRDVDTQVLENKLIAIIGYGSQAHAHAQNLRDSGFNVVVGLREGSSSKAKAEQAGLRVASIEDATKEADVVMLLIPDEQQPAVYEKSIAPHLTAGKALAFGHGFNVHFGRIKPPADVDVFLVAPKGPGHMLRRVYTDGAGMPGIFAVQQDASGKARDIALAYARGIGCTKAGVLETTFKEETETDLFGEQSVLCGGVTHLIQAGFETLVEAGYQPEIAYFETLHEVKLIVDLIYEKGFEGMRHSISNTAEFGDYVTGPRIITDQTKAEMKNVLGDIQSGKFAESFIKDAESGFPYMNEQRSKMRDHTVEKVGKELRDQMPFINKKELEV
B2: oxidoreductase (DR_1890), endogenous (enzyme, UniProt Q9RT75 1-327)
chain: MCPSCAATFLSPILLGMTHGTPAQAPNTQTSNAQSPNAAASGTFLIGGELEVNRLGYGAMRVTGDGVWGDPADREGSLATLRALPGLGVNLIDTADSYGPAVSEELIREALHPYPGLVVATKGGLTRTGPNVWPPCGRPEYLIQQAQISRRRLGVERIDLWQLHRIDPQVPRDEQFGAIRQLLDDGVIRFVGLSEVNVEEIEAARQVFPVATVQNLYNLTNRKSEAVLDYCGREGIGFLPWYPLASGKLAAEGSVLTETAARLGAAPAQVALAWVLRRSPVMLPIPGTSKVKHLEENVAAASLTLTDEDFRALDEAGRAEWEAGQQK
B3: nicotinamide-nucleotide adenylyltransferase (DR_2428), endogenous (enzyme, UniProt Q9RRR0 1-345)
chain: MTAPHDPALASPAPPIPSRAYGVYIGRFEPPHQAHLLVMLEALERVQTLIVVIGSARSARTTKNPWTAHERQDVIEAMLAEAGADPQRLRFVHVRDFLYDEAHWLADVRAGVEAHTGGSRDVALVGHIKDESSYYLRSFPDWEFLPTHVVSPLNATDVRRAYFEDRLSDVRGMVPPAVHAFLEGFQRTPEYAELQAEFLALRSAVAPAPATRLTVGAVVSGAGQLLAVRRAERPGRGLLTLPGDEPGPQETLLACAMRAVRQQTGLDTGAVLGAVRAQAIFDAPGRSQRGRIVAYVFHFALGEDALTAQPAGNAAAWLPLSEALEHPEGWFEDEAEIVAHFLAKV
B4: enoyl-CoA hydratase, putative (DR_0114), endogenous (enzyme, UniProt Q9RY37 1-257)
chain: MTYQSIRLTQRPLSQDGTTQGGTVATLTLAAKMGSMGPAFWQEFPQALSELGDARVLIVRGEQVFSAGLDVKSNGAAIVPALGKPDAFKAVVDEMHAVTEGLAALPMPVIAAVHGWCIGAGLELIAGADLRLCSQDARFSLPEVKLGITADLGGLQRLPHLIGRGRTAHLALTGEAIDAATAERWGLVTEVLPDQDALFARAEALAEHLAALPAKALEGTKRALSDGLPHAESLAAAVRWNAEHMTVEALQAGMKKG
B5: S-adenosylhomocysteine nuclosidase (DR_1451), endogenous (enzyme, UniProt Q9RUD6 1-238)
chain: MLGSMLAIIGAMDEEIELLLGELQGREDLTLPGATLHRGVLDGVPVLLTRGGIGKVNAALTTAHLLGQGATSVIFTGVAGGVHPDLRVGDIVVSTDLVQHDVDVTALGYDLGTLPGEPATWTADARLRALAVAAAGDVGGVRVIEGRVASGDQFIASREGVGRLWKNFGAACAEMEGAAVAQVCAKAGVPFVVIRSVSDTADHDAQVDYRTFMPLVARHAKQVVRGMLERLSGAAEAN
B6: putative homolog of BrxC (YtxJ) (DR_1832; AbxC), endogenous (enzyme, UniProt Q9RTD3 1-211)
chain: MTQGQDQVLSPLTTPDEVDQFLKDYPLAAVFKAGTCHKTMQGFGVLETFLQRYELPVGFIRVVDWRPASNHVAELTGLTHHSPQFILFKDGQAQYEVNNWDITPEALGPVFEQQVPQRSGAAQVDAGDSVEPYRQLMQAYLAGQLSDWAFQDQYVTMFRDDASLRSQREFELLSRLFGDPDAYHGGLHQLGAPQDRGDLKARVQSVLDQLG
B7: predicted acetyltransferase (DR_0763), endogenous (protein, UniProt Q9RWA6 1-158)
chain: MREAQETGSGLGETLVWKLDDISADFGKVLRDLTRYEPGNELPEGFVHSEYRWLVEGSEYLGRVSIRYSLNDRLREFGGHIGYEIRPSARRKGYGTLILRLALERARELGIDPVLVTCDVDNFGSRGVIEANGGELEGEFEVPQYHDQPIRRYWIRQP
B8: Nudix family protein (DR_0876), endogenous (enzyme, UniProt Q9RVZ4 1-157)
chain: MNLSRTLPIKRAAHVYLVRGEELLLVEERMDDGSIFYGLPGGKAQPSETLADAAVRQVLVETGLHVTNLEFVSLLEGELLTGTRNECFANFARFTAAFHGELDPTDPEVVGVKWVPFEQVEGLVRYGPPPECEERNPLIWLPTRDFIAGKARAYYPI

Biological target: T1, AbxC (atypical BrxC; DR_1832), C-terminal His x 6 tag (Deinococcus radiodurans)
Experiment: affinity purification with mass spectrometry; AbxC immobilised on CNBr-activated Sepharose 4B; 10 mg D. radiodurans cell lysate, overnight at 4 °C; washed with 100 mM Tris pH 8.0, 0.5 M NaCl; eluted with 10 mM DTT; SDS-PAGE bands, in-gel trypsin, nLC-MS-MS; only the target purified

Row | Binder | binding
1 | B1 | binds
2 | B2 | binds
3 | B3 | binds
4 | B4 | binds
5 | B5 | binds
6 | B6 | binds
7 | B7 | binds
8 | B8 | binds
